Results deposited as PubChem BioAssay AID743454 (Peter MacCallum Cancer Centre, 2014).
The deposit covers about 18,000 reagents; shown is a part drawn at random. 450 of them (2.5%) count as active. 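Single biological run; no consistent viability z cut-off exists, so the class columns, not z-scores, define the calls.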

- Test: 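Knock-downs lowering viability or raising caspase 3/7 activity in vorinostat-treated resistant cells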 (primary screen)
- System: human HCT116-VR colon cancer cells, selected for vorinostat resistance
- Knock-down reagent: siRNA pool against human genes, 40 nM siRNA pool
- Time to read-out: vorinostat for 24 h, read-out about 72 h after transfection
- Conditions: vorinostat at 2.5 µM final
- Read-out: 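Two measures, CellTiter-Fluor viability and luminescent caspase 3/7 activity, each as fold change against same-plate mock wells, mean of duplicates, then screen-wide robust z-score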
- Direction: viability robust z-score: higher = more viable cells than screen typical; caspase robust z-score: higher = more caspase 3/7 activity than screen typical
- Active means: 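Hits are knock-downs in viability class RV1/RV2 or caspase class CA1/CA2, excluding ones that killed cells in the no-drug cell-count arm; hits then retested with single siRNAs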

TTLL12 → viability hit class: no change; caspase hit class: no change; viability robust z-score: -1.96; caspase robust z-score: 1.08; Call: inactive
PCBD2 → viability hit class: no change; caspase hit class: no change; viability robust z-score: -0.5; caspase robust z-score: -1.02; Call: inactive
MCOLN1 → viability hit class: no change; caspase hit class: no change; viability robust z-score: -0.06; caspase robust z-score: 0.38; Call: inactive
LINC01599 → viability hit class: no change; caspase hit class: no change; viability robust z-score: -0.18; caspase robust z-score: -0.56; Call: inactive
RUNDC3B → viability hit class: no change; caspase hit class: no change; viability robust z-score: -0.28; caspase robust z-score: -0.34; Call: inactive
GATA6 → viability hit class: no change; caspase hit class: no change; viability robust z-score: -0.46; caspase robust z-score: -0.71; Call: inactive
APOA1 → viability hit class: no change; caspase hit class: no change; viability robust z-score: 0.48; caspase robust z-score: -0.55; Call: inactive
CWF19L2 → viability hit class: no change; caspase hit class: no change; viability robust z-score: 0.34; caspase robust z-score: -0.92; Call: inactive
OR52N1 → viability hit class: no change; caspase hit class: no change; viability robust z-score: -0.88; caspase robust z-score: -0.99; Call: inactive
CYB561D1 → viability hit class: no change; caspase hit class: no change; viability robust z-score: -0.94; caspase robust z-score: 0.6; Call: inactive
HDAC3 → viability hit class: no change; caspase hit class: no change; viability robust z-score: -0.91; caspase robust z-score: -0.14; Call: inactive
BTF3L4 → viability hit class: no change; caspase hit class: no change; viability robust z-score: -0.64; caspase robust z-score: 3.12; Call: inactive
OR2M2 → viability hit class: no change; caspase hit class: no change; viability robust z-score: -0.9; caspase robust z-score: 1.8; Call: inactive
MRPS23 → viability hit class: no change; caspase hit class: no change; viability robust z-score: -0.55; caspase robust z-score: -0.24; Call: inactive
MGST3 → viability hit class: no change; caspase hit class: no change; viability robust z-score: -2.11; caspase robust z-score: 3.46; Call: inactive
S100A5 → viability hit class: no change; caspase hit class: no change; viability robust z-score: 1.3; caspase robust z-score: 1.15; Call: inactive
OR51E2 → viability hit class: no change; caspase hit class: no change; viability robust z-score: 0.31; caspase robust z-score: 0.08; Call: inactive
FARS2 → viability hit class: no change; caspase hit class: no change; viability robust z-score: 0.67; caspase robust z-score: 0.24; Call: inactive
SOX9 → viability hit class: no change; caspase hit class: no change; viability robust z-score: -1.52; caspase robust z-score: 1.54; Call: inactive
OR52N2 → viability hit class: no change; caspase hit class: no change; viability robust z-score: 0.04; caspase robust z-score: 0.64; Call: inactive
LSM1 → viability hit class: no change; caspase hit class: no change; viability robust z-score: -0.12; caspase robust z-score: -0.13; Call: inactive
